Reference: publication doi:10.1101/438713

Tests used:
Assay in all cases: FRET or BRET
[1] = target: PvdI-eGFP (Pseudomonas aeruginosa PAO1)
[2] = target: eGFP-PvdD (Pseudomonas aeruginosa PAO1) (UniProt Q9I182)
[3] = target: PvdJ-eGFP (Pseudomonas aeruginosa PAO1)
[4] = target: eGFP-PvdL (Pseudomonas aeruginosa PAO1)
[5] = target: PvdJ-mCherry (Pseudomonas aeruginosa PAO1)
[6] = target: mCherry-PvdD (Pseudomonas aeruginosa PAO1)

Measured: binding

B1: PvdA-mCherry (enzyme, UniProt Q51548 1-443)
chain: MTQATATAVVHDLIGVGFGPSNIALAIALQERAQAQGALEVLFLDKQGDYRWHGNTLVSQSELQISFLKDLVSLRNPTSPYSFVNYLHKHDRLVDFINLGTFYPCRMEFNDYLRWVASHFQEQSRYGEEVLRIEPMLSAGQVEALRVISRNADGEELVRTTRALVVSPGGTPRIPQVFRALKGDGRVFHHSQYLEHMAKQPCSSGKPMKIAIIGGGQSAAEAFIDLNDSYPSVQADMILRASALKPADDSPFVNEVFAPKFTDLIYSREHAERERLLREYHNTNYSVVDTDLIERIYGVFYRQKVSGIPRHAFRCMTTVERATATAQGIELALRDAGSGELSVETYDAVILATGYERQLHRQLLEPLAEYLGDHEIGRDYRLQTDERCKVAIYAQGFSQASHGLSDTLLSVLPVRAEEISGSLYQHLKPGTAARALHEHALAS
binds: [1] | [2] | [3] | [4]

B2: PvdA-eGFP (enzyme, UniProt Q51548 1-443)
chain: MTQATATAVVHDLIGVGFGPSNIALAIALQERAQAQGALEVLFLDKQGDYRWHGNTLVSQSELQISFLKDLVSLRNPTSPYSFVNYLHKHDRLVDFINLGTFYPCRMEFNDYLRWVASHFQEQSRYGEEVLRIEPMLSAGQVEALRVISRNADGEELVRTTRALVVSPGGTPRIPQVFRALKGDGRVFHHSQYLEHMAKQPCSSGKPMKIAIIGGGQSAAEAFIDLNDSYPSVQADMILRASALKPADDSPFVNEVFAPKFTDLIYSREHAERERLLREYHNTNYSVVDTDLIERIYGVFYRQKVSGIPRHAFRCMTTVERATATAQGIELALRDAGSGELSVETYDAVILATGYERQLHRQLLEPLAEYLGDHEIGRDYRLQTDERCKVAIYAQGFSQASHGLSDTLLSVLPVRAEEISGSLYQHLKPGTAARALHEHALAS
binds: [5] | [6]

No constants are given. Whether binding was seen depends on the method and setting. Binding seen in cells or lysates may run through a third protein. Binding calls can cover weak binding; strength is not graded here. For part of these data: Tags and fused reporters may be left off the sequences shown.
